{"sequences": {"note": "Amino acid sequences for entries named in this document (tags omitted). A change or cut given only in a name is not applied to a line headed by its entry. Residues count along the entry.", "UniProt F1PAA9, 157-885": "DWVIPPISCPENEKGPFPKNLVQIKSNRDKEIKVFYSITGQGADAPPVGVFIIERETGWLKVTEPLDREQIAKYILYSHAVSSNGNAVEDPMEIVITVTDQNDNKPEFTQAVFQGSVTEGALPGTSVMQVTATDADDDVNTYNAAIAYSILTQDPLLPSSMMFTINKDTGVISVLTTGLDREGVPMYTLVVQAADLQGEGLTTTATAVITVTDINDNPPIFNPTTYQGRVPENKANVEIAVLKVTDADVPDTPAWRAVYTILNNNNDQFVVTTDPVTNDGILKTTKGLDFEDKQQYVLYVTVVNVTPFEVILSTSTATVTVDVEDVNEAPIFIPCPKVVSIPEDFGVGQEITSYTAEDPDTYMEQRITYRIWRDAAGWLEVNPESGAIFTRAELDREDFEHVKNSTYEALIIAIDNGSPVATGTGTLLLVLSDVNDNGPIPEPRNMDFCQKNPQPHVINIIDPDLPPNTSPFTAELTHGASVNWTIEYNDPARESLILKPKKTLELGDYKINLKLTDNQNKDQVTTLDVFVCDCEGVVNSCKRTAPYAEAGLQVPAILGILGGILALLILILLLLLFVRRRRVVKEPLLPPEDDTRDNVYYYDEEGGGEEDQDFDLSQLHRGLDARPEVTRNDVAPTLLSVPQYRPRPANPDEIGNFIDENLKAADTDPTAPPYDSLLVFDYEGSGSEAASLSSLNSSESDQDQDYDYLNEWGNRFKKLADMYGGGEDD"}, "source": "paper doi:10.1101/2025.11.07.687288", "molecules": {"B1": {"name": "p120-catenin (protein, UniProt O60716 1-968)", "chain": "MDDSEVESTASILASVKEQEAQFEKLTRALEEERRHVSAQLERVRVSPQDANPLMANGTLTRRHQNGRFVGDADLERQKFSDLKLNGPQDHSHLLYSTIPRMQEPGQIVETYTEEDPEGAMSVVSVETSDDGTTRRTETTVKKVVKTVTTRTVQPVAMGPDGLPVDASSVSNNYIQTLGRDFRKNGNGGPGPYVGQAGTATLPRNFHYPPDGYSRHYEDGYPGGSDNYGSLSRVTRIEERYRPSMEGYRAPSRQDVYGPQPQVRVGGSSVDLHRFHPEPYGLEDDQRSMGYDDLDYGMMSDYGTARRTGTPSDPRRRLRSYEDMIGEEVPSDQYYWAPLAQHERGSLASLDSLRKGGPPPPNWRQPELPEVIAMLGFRLDAVKSNAAAYLQHLCYRNDKVKTDVRKLKGIPVLVGLLDHPKKEVHLGACGALKNISFGRDQDNKIAIKNCDGVPALVRLLRKARDMDLTEVITGTLWNLSSHDSIKMEIVDHALHALTDEVIIPHSGWEREPNEDCKPRHIEWESVLTNTAGCLRNVSSERSEARRKLRECDGLVDALIFIVQAEIGQKDSDSKLVENCVCLLRNLSYQVHREIPQAERYQEAAPNVANNTGPHAASCFGAKKGKDEWFSRGKKPIEDPANDTVDFPKRTSPARGYELLFQPEVVRIYISLLKESKTPAILEASAGAIQNLCAGRWTYGRYIRSALRQEKALSAIADLLTNEHERVVKAASGALRNLAVDARNKELIGKHAIPNLVKNLPGGQQNSSWNFSEDTVISILNTINEVIAENLEAAKKLRETQGIEKLVLINKSGNRSEKEVRAAALVLQTIWGYKELRKPLEKEGWKKSDFQVNLNNASRSQSSHSYDDSTLPLIDRNQKSDKKPDREEIQMSNMGSNTKSLDNNYSTPNERGDHNRTLDRSGDLGDMEPLKGTTPLMQDEGQESLEEELDVLVLDDEGGQVSYPSMQKI"}, "B2": {"name": "Synaptotagmin-like protein 4 (protein, UniProt Q96C24 1-671)", "chain": "MSELLDLSFLSEEEKDLILSVLQRDEEVRKADEKRIRRLKNELLEIKRKGAKRGSQHYSDRTCARCQESLGRLSPKTNTCRGCNHLVCRDCRIQESNGTWRCKVCAKEIELKKATGDWFYDQKVNRFAYRTGSEIIRMSLRHKPAVSKRETVGQSLLHQTQMGDIWPGRKIIQERQKEPSVLFEVPKLKSGKSALEAESESLDSFTADSDSTSRRDSLDKSGLFPEWKKMSAPKSQVEKETQPGGQNVVFVDEGEMIFKKNTRKILRPSEYTKSVIDLRPEDVVHESGSLGDRSKSVPGLNVDMEEEEEEEDIDHLVKLHRQKLARSSMQSGSSMSTIGSMMSIYSEAGDFGNIFVTGRIAFSLKYEQQTQSLVVHVKECHQLAYADEAKKRSNPYVKTYLLPDKSRQGKRKTSIKRDTINPLYDETLRYEIPESLLAQRTLQFSVWHHGRFGRNTFLGEAEIQMDSWKLDKKLDHCLPLHGKISAESPTGLPSHKGELVVSLKYIPASKTPVGGDRKKSKGGEGGELQVWIKEAKNLTAAKAGGTSDSFVKGYLLPMRNKASKRKTPVMKKTLNPHYNHTFVYNGVRLEDLQHMCLELTVWDREPLASNDFLGGVRLGVGTGISNGEVVDWMDSTGEEVSLWQKMRQYPGSWAEGTLQLRSSMAKQKLGL"}}, "test_in_all_cases": "proximity labelling", "key": {"[1]": {"biological_target": "E-cadherin, wild type, as the Dimerization Activated TurboID pair (WT-DAT: EcadN and EcadC) (UniProt F1PAA9)"}, "[2]": {"biological_target": "WT-Ecad fused to full-length TurboID (WT-Turbo) (UniProt F1PAA9)"}, "[3]": {"biological_target": "WT-Ecad fused to full-length TurboID (WT-Turbo) (UniProt F1PAA9)", "remark": "listed apart in the source"}, "[4]": {"biological_target": "Δ-Ecad (V81D L175D) fused to full-length TurboID (Δ-Turbo)"}, "[5]": {"biological_target": "E-cadherin, wild type, as the Dimerization Activated TurboID pair (WT-DAT: EcadN and EcadC) (UniProt F1PAA9)", "remark": "listed apart in the source"}}, "note": "Like-named read-outs stand apart in the source and are kept apart here. Results are given in words; binding and its absence hold for the method and conditions named. Binding seen in cells or lysates may run through a third protein. These calls come from enrichment with a bait or labelling near it, and not all partners need be listed. For part of these data: Where a sequence is shown, tags or fusion partners need not be part of it.", "data": [{"molecule": "Vinculin (from UniProt P18206-2)", "values": [{"measurement": "binding", "setting": "[1]", "value": "binds"}, {"measurement": "binding", "setting": "[2]", "value": "binds"}]}, {"molecule": "B1", "values": [{"measurement": "binding", "setting": "[3]", "value": "binds"}, {"measurement": "binding", "setting": "[4]", "value": "binds"}]}, {"molecule": "B2", "values": [{"measurement": "binding", "setting": "[5]", "value": "binds"}, {"measurement": "binding", "setting": "[3]", "value": "binds"}]}]}
